This passage reports binding results from paper doi:10.1101/2024.06.23.598940.

Amino acid sequences for entries named in this document (tags omitted). Residues count along the entry.
UniProt P53762: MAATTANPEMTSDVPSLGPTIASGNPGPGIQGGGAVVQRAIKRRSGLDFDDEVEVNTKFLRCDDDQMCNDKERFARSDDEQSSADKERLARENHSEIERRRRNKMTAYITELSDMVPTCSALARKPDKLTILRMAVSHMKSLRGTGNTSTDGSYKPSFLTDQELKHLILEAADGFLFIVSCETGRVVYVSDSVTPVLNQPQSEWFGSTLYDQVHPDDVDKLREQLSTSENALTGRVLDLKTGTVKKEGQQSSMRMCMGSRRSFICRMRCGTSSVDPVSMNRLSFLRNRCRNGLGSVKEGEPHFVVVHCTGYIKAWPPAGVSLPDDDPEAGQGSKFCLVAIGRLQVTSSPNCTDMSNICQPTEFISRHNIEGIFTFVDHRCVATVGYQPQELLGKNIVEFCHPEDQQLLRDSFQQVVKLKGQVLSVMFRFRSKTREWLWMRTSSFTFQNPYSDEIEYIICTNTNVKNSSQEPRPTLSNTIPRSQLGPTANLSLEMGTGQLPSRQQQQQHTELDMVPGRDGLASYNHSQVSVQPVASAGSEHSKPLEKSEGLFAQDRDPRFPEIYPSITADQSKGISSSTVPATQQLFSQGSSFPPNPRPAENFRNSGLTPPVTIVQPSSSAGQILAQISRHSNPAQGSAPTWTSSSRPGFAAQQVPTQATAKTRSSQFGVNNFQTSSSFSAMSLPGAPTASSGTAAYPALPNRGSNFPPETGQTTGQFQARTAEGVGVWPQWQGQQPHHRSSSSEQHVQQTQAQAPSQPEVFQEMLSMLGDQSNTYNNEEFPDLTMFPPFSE
UniProt P30561, residues 10-848: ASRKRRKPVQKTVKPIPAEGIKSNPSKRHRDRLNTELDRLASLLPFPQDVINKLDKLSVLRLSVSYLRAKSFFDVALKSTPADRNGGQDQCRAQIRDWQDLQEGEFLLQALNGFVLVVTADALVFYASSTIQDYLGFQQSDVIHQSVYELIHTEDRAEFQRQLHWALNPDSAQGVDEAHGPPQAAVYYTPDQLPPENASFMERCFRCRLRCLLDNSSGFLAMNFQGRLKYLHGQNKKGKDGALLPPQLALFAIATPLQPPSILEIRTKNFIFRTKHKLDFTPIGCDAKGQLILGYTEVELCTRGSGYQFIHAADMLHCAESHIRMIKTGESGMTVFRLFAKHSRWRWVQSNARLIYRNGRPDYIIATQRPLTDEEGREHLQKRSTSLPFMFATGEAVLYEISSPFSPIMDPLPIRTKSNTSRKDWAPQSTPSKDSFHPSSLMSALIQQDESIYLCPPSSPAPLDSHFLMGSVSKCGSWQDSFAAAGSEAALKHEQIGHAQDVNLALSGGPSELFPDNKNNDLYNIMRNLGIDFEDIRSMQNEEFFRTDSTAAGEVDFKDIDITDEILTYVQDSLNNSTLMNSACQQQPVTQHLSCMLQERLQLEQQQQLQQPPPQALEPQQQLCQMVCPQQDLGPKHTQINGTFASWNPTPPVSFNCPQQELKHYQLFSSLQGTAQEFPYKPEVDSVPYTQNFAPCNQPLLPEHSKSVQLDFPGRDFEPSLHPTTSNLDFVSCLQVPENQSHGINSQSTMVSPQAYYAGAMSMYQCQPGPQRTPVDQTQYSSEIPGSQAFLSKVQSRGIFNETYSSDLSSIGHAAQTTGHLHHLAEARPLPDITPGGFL

Results are given in words; binding and its absence hold for the method and conditions named. In cells and extracts the contact can be indirect. Some binding calls cover weakened binding; strength is not graded here.

The experiment has as its target AhR nuclear translocator (ARNT) (mouse (endogenous in primary mouse astrocytes)) (UniProt P53762). The experiment can be described thus: co-IP.

“aryl-hydrocarbon receptor (AhR) (from UniProt P30561 10-848)”: the binding entry is reported as “binds”.
